Test system: Male Sprague-Dawley rats
Assay: Behavioral assay (stereotyped behavior, PCP rating scale)
Format: in vivo
Experimental: Nine compounds were tested in comparison with PCP and TCP by an in vivo assay which determined stereotypic behavior in rats treated with the compounds. Male Sprague-Dawley rats weighing 200 to 250 g were used in the behavioral experiments. Each rat was used only once. Rats were anesthetized lightly with ether before a 20-gauge needle was used to make a hole in the rat's skull for i.c.v. injection of drugs at a later date. These rats were allowed to recover for at least 1 day before being used in the behavioral assays. On the day of the experiment, rats were placed individually into plastic rat cages and allowed at least 1 hr to acclimate before testing. Drugs were administered to rats in a random, single-blind fashion.
Dose-response curves for each treatment were determined at the time of maximal behavioral effect. Peak effects were found 5 min after i.c.v. administration of PCP (25-20000 nmol/rat). […] A rating of 5 in the PCP-rating scale was considered as complete stereotyped behavior, that is, a 100% response. […] ED₅₀ values and dose-response curves were evaluated using a computerized Finney assay [Statistical Methods In Biological Assays, 2nd Edn., Hatner Pub. […]
The ability of the tested compounds to induce stereotyped behavior was assessed at 2.5, 5 and 10 minutes and thereafter every 5 min up to 1 hr after i.c.v., i.p., or s.c. administration.

## c1ccc(C2(N3CCCCC3)CCCCC2)cc1 [PCP, Phencyclidine, reference compound]
i.c.v., 25-20000 nmol/rat
  Peak effects (time after administration): 5 min
i.p., 2.0-32 mg/kg
  Peak effects (time after administration): 15 min

From patent EP0346791B1, “1,2-diarylethylamines for treatment of neurotoxic injury” (priority 1988, dated 1989)
